## Results of single-concentration screens

Sequences of proteins named here, by UniProt entry; tags and fusion partners are left off.
UniProt P9WNZ1, whole entry: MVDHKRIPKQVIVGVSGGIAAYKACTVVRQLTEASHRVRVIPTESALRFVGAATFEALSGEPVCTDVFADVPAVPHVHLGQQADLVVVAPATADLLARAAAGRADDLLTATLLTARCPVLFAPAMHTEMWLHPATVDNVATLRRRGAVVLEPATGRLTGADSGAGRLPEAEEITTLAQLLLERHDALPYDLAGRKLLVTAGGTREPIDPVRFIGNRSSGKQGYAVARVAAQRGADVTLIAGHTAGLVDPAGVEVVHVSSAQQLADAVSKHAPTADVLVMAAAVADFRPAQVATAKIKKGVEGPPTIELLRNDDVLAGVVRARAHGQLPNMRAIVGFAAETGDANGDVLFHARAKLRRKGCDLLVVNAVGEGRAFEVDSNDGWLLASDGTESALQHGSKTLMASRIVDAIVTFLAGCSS

The values are deposited in ChEMBL (CHEMBL3988442, “University of Dundee, Small-Polar-MMV Screening Library” (2021)).

Each number is a percent effect as filed.
How 0% and 100% were set is not recorded. Most values in the screen are low, and negative values occur.
This is an unselected part of the compounds tested.
Two or more numbers in one place are separate tests of the same structure; such repeats can differ widely.

A: 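Cell assay of Leishmania donovani living inside macrophages; the read-out is not stated. Concentration: 30 µM. Higher reads as stronger inhibition (inferred: compounds with an IC50 in retests scored well above the rest). Size under these conditions: about 69,000 compounds, about 1,000 of them at 50% or above in at least one test.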
B: 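Enzyme assay of CoaBC with a phosphate dye (Biomol Green) read at 650 nm. Target: Coenzyme A biosynthesis protein CoaBC, Mycobacterium tuberculosis (UniProt P9WNZ1). Tested at 30 µM. Higher reads as stronger inhibition, judged from the few compounds that gave an IC50. Most strong results did not repeat in a second test. Of about 67,000 compounds tested this way, about 40 (0.06%) reached 50% or more in at least one test.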

- CCn1ccc(NC(=O)C2CCC(=O)N2Cc2ccc(C)o2)n1 (stereo not shown) | A: 9.57%; B: -0.1122%
- CN(C)Cc1nn(C)c2c1CCN(C(=O)c1cccnc1)C2 | A: 6.052%; B: 2.353%
- Cc1nc(C2CCN(C[C@H](C)CO)CC2)cc(N2CCOCC2)n1 | A: 21.25%; B: 5.159%
- CCOc1cccc2c1OCC(C(=O)NS(=O)(=O)c1ccc(Br)s1)=C2 | A: -31.53%; B: -20.75%
- O=C(COCC(=O)N(c1ccccc1)c1ccccc1)N1CCOCC1 | A: 2.68%; B: 4.251%
- COc1cc(N2CC[C@@H]3O[C@@H](c4ccncn4)C[C@H]3C2)ncn1 | B: 7.917%
- C=C(C)CN1CCN(Cc2nccn2C)C(C)C1 (stereo not shown) | A: 22.8%; B: 7.347%
- CSc1ccc(NCC(=O)NCC2CC2)cc1F | A: 15.55%; B: -0.7426%
- O=C(O)C(F)(F)F.[H][C@@]12CN(Cc3ccc(C)cc3)C[C@]1([H])CN(c1ncccn1)C2 | A: -31.81% & 0.0694%
- O=C(O)C(F)(F)F.O=C(O)C(F)(F)F.[H][C@@]12CCCO[C@]1([H])[C@H](N(C)Cc1cccnc1)CN2C(=O)NC1CC1 | A: -3.275%
- O=C(NCCn1ccnc1)C1COCC(=O)N1Cc1ccccc1 (stereo not shown) | A: 0.5758%; B: -0.86%
- O=C(c1ccccc1)N1CCC[C@]2(C[C@@H](Oc3ncccc3F)CO2)C1 | B: -3.083%
- CC(C)c1n[nH]c(C2CN(C(=O)c3cc4c(s3)CCC4)CCO2)n1 (stereo not shown) | A: 23.82%; B: 1.837%
- Cc1ccc(N2C[C@H]3OCC[C@H]3[C@H](C(=O)NC3CCC3)C2)nn1 | B: 1.777%
- Cc1ccc(CN(C)CC2(O)CCCN(C)C2)o1 (stereo not shown) | A: 48.15%; B: -3.356%
- Cc1csc(C2CCCCN2C(=O)c2cnn3ccc(C)nc23)n1 (stereo not shown) | A: 27.14%; B: 4.869%
- CC(=O)N[C@H]1CCO[C@@H](c2cccc(NC(=O)Cc3ccccc3)c2)C1 | A: -29.56%; B: -6.538%
- COc1cccc(Cn2ncnc2COC(C)C)c1 | A: -22.49%; B: -0.5981%
- CN1CCC2(COCCN(Cc3ccc4c(c3)OCO4)C2)C1 (stereo not shown) | B: -8.293%
- CCCS(=O)(=O)N1Cc2ccnn2CC(c2nc(C)no2)C1 (stereo not shown) | B: -6.721%
- Cc1nn(C)c(C)c1-c1ccnc(N(C)Cc2nc(C(C)C)no2)n1 | A: 52.75%; B: 0.4577%
- CN1CCN(C2CCN(CCCOc3ccc(F)cc3)CC2)C1=O | A: 3.803%; B: 3.484%
- Cc1nnc2n1CCN(Cc1csc(-c3ccsc3)n1)C2 | A: 33.34%; B: 5.044%
- Cc1cnn(CCC(=O)N2CCN(c3ccc(C#N)cn3)CC2)c1 | A: 2.132%; B: -1.863%
- Cc1ccc(NC2CCN(C(=O)CCc3ccco3)CC2)nn1 | A: -2.582%; B: 11.8%
- Cc1cc(C)n(C2CCCN(C(=O)CCc3nccs3)C2)n1 (stereo not shown) | A: -0.489%; B: -6.36%
- Cc1ccc(C(=O)NC2CCN(Cc3nc(C(C)C)no3)CC2)s1 | A: 17.48%; B: 1.015%
- Cc1cc(C)c2c(N3CCN(CCN4CCOCC4)CC3)ncnc2n1 | A: 14.46%; B: 2.558%
- FC(F)(F)c1ccnc(N2CCCN(Cc3ccccn3)CC2)n1 | A: 27.09%; B: -0.9709%
- COC(=O)N1CCc2ccc(NC(=O)c3cn(C)nn3)cc2C1 | A: -11.22%; B: 1.648%
- Cc1cccc(-n2ncc3c2CCCC3NCc2cccc(O)c2)c1C (stereo not shown) | A: -12.46% & 19.53%; B: 2.036%
- Cc1nnc(CN(Cc2ccc3c(c2)OCO3)C2CCC(C)CC2)o1 (stereo not shown) | A: 2.007%; B: 5.263%
- CCn1nc(C)c(CN(CCOC)Cc2ccccn2)c1C | A: -0.7192%; B: -0.5612%
- COc1cccc(OCC2CCCN(C(C)=O)C2)c1 (stereo not shown) | A: 22.2%; B: 3.272%
- O=C(Nc1ccccc1OC1CCOC1)c1cc[nH]n1 (stereo not shown) | A: -32.88%; B: -2.288%
- O=C(c1ccc(-n2ccnc2)nn1)N1CCCC1CCc1ccccc1 (stereo not shown) | A: 12.93%; B: 8.752%
- CC(=O)c1ccn(CC(=O)Nc2nn(CC3CC3)c3ccccc23)n1 | A: 39.68%; B: -1.79%
- CCC(C)NC(=O)Cn1c(Nc2cc(C)cc(C)c2)nc(C)cc1=O (stereo not shown) | A: 8.486%; B: -1.211%